Data: patent US20110059097A1 (UNIVERSITY HEALTH NETWORK, published 2011)
No constants are given. Whether binding was seen depends on the method and setting. Some binding calls cover weakened binding; strength is not graded here.

Experiments:
[1] = target: T1, human MFAP4 on ex vivo-expanded human DNT cells (human) (UniProt P55083); test: flow cytometry on ex vivo-expanded human DNT cells
T1 sequence: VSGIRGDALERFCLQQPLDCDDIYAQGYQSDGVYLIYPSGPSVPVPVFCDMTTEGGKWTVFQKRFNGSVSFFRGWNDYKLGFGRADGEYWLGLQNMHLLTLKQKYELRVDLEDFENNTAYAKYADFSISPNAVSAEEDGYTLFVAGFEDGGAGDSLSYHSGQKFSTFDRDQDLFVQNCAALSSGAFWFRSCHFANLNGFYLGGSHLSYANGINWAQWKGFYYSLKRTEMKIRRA

[2] = target: T1, human MFAP4 on ex vivo-expanded human DNT cells (human); test: flow cytometry on human DNT cells, 10 days after ex vivo expansion

B1: G1 monoclonal antibody (antibody, V domains shown)
VH: EVKLVESGGGLVQPGRSLKLSCAASGFPFSNYGMAWVRQAPTKGLAWVATISYDGRSTYYRDSVKGRFTISRNNAKSTLYLQMDSLRSEDTATYYCVRHELPEDHWGQGVMVTVSS
VL: DIVMTQSPFSLAVSEGEMVTINCKSGQSLLSSGNQKNYLAWYQQKPGQSPKLLIYYSSTRQSGVPDRFIGSGSGTDFTLTISDVQAEDLADYYCLQHYSSPFTFGSGTKLEIK
notes: Hybridoma monoclonal antibody raised against cell surface molecules of tumor-reactive mouse DNT cells; also called G1 mAb; mAb (clone: G1)
[1]
  binding: binds
[2]
  binding: binds
